Measurements taken from PubChem BioAssay.
The other results are listed elsewhere or left out. Entries without a call are filed as inconclusive in the source. For some of these results: Entries with a potency or affinity are not part of this list.

test: enhancers of polyQ-expanded androgen receptor AR112-GFP degradation, cell-based, GFP fluorescence (AID 1607); details: cells expressing AR112-GFP, stronger effect = lower value

Row | Compound | normalized GFP signal
1 | O=C1OC(c2ccc(O)cc2)(c2ccc(O)cc2)c2ccccc21 | 1.06
2 | CC12CCC3c4ccc(OCc5ccccc5)cc4CCC3C1C[C@@H](O)[C@@H]2O (stereo partly specified) | 0.866
3 | CCCCN1CCCCC1C(=O)Nc1c(C)cccc1C (stereo unspecified) | 1.02
4 | N.N.O=C(O)C1(C(=O)O)CCC1.[Pt] | 0.93
5 | COc1ccc(C2C(=O)c3ccccc3C2=O)cc1 | 1.04
6 | COC1=C2C[C@@H](C)C[C@H](OC)[C@H](O)[C@@H](C)/C=C(\C)[C@@H](OC(N)=O)[C@H](OC)/C=C\C=C(/C)C(=O)NC(=CC1=O)C2=O | 0.736
7 | O=c1ccn([C@@H]2O[C@H](COP(=O)(O)OP(=O)(O)OP(=O)(O)O)[C@@H](O)[C@H]2O)c(=O)[nH]1 | 0.944
8 | COc1c(OC)c2occc2c2oc(=O)ccc12 | 1.04
9 | CN=C(NC#N)NCCSCc1nc[nH]c1C | 0.983
10 | Cc1ccccc1OCC(O)CO (stereo unspecified) | 1.05
11 | CC(C)(C)NC[C@@H](O)COc1nsnc1N1CCOCC1 | 1.11
12 | COc1cc(NC(C)CCCN)c2ncccc2c1 (stereo unspecified) | 0.938
13 | CC[C@H](C)C(=O)O[C@H]1CCC=C2C=C[C@H](C)C(CCC3C[C@@H](O)CC(=O)O3)[C@H]21 (stereo partly specified) | 0.93
14 | CCC(=O)OCC(=O)C1(OC(=O)CC)C(C)CC2C3CCC4=CC(=O)C=CC4(C)C3(Cl)C(O)CC21C (stereo unspecified) | 1.23
15 | N#Cc1ccc2c(c1)N(CCCN1CCC(O)CC1)c1ccccc1S2 | 0.924
16 | CC(=O)O[C@H]1C[C@@]2(C)[C@@H](C[C@@H](O)C3[C@]2(C)CC[C@H]2[C@H](C)[C@H](O)CC[C@]32C)/C1=C(/CCC=C(C)C)C(=O)O (stereo partly specified) | 0.941
17 | CC(C)C[C@@H](NC(=O)OCC1c2ccccc2-c2ccccc21)C(=O)O | 1.08
18 | C=C1CC[C@H](O)C/C1=C/C=C1\CCC[C@]2(C)C([C@H](C)/C=C/[C@H](C)C(C)C)CC[C@@H]12 (stereo partly specified) | 0.997
19 | CC[C@H]1CN2CCc3cc(OC)c(OC)cc3C2C[C@@H]1CC1NCCc2cc(OC)c(OC)cc21 (stereo partly specified) | 0.688
20 | CC(C)CC(NC(=O)CCN)C(=O)O (stereo unspecified) | 1.03
21 | CCCCCCc1ccc(O)cc1O | 0.953

Two entries from above, in markdown:

| Row | Compound | normalized GFP signal |
| --- | --- | --- |
| 7 | O=c1ccn([C@@H]2O[C@H](COP(=O)(O)OP(=O)(O)OP(=O)(O)O)[C@@H](O)[C@H]2O)c(=O)[nH]1 | 0.944 |
| 8 | COc1c(OC)c2occc2c2oc(=O)ccc12 | 1.04 |

test: PubChem AID 1608; details: PC12 mutant huntingtin toxicity, LDH release

Row | Compound | protection score
22 | COc1ccc(/C=C/c2cc(O)cc(O[C@@H]3O[C@H](CO)[C@@H](O)[C@H](O)[C@H]3O)c2)cc1O | 1.11
23 | CC(=O)[C@H]1CCC2C3CCC4=CC(=O)CC[C@]4(C)C3CC[C@@]21C (stereo partly specified) | 0.597
24 | CN(C)CCCN1c2ccccc2Sc2ccc(Cl)cc21 | 1.02
25 | CC1=C(/C=C/C(C)=C/C=C/C(C)=C/C=C/C=C(C)/C=C/C=C(C)/C=C/C2=C(C)CCCC2(C)C)C(C)(C)CCC1 | 0.885
26 | COC(=O)[C@H]1[C@H]2C[C@H]3c4[nH]c5ccccc5c4CCN3C[C@H]2CC[C@@H]1O | 0.353
27 | CN(C)CC/C=C1/c2ccccc2COc2ccccc21 | 1.01
28 | C[C@H](CCC(=O)O)[C@H]1CCC2C3C(CC[C@@]21C)[C@@]1(C)CC[C@@H](O)C[C@H]1C[C@@H]3O (stereo partly specified) | 0.767
29 | COC(=O)C(N)CS (stereo unspecified) | 0.945
30 | Nc1ccn(C2O[C@H](CO)[C@@H](O)[C@H]2O)c(=O)n1 (stereo partly specified) | 0.875
31 | NC(=O)c1cccc(N)c1 | 0.924
32 | NC(=O)c1ccc([N+](=O)[O-])cc1Cl | 0.957
33 | NC(=O)NC(=O)Cc1ccccc1 | 0.601
34 | CC1(C)S[C@@H]2[C@H](NC(=O)COc3ccccc3)C(=O)N2[C@H]1C(=O)O | 0.952
35 | O=C1NC(=O)C(c2ccccc2)(c2ccccc2)N1 | 1.02
36 | Cc1noc(NS(=O)(=O)c2ccc(N)cc2)c1C | 0.815
37 | c1ccc(CC2=NCCN2)cc1 | 0.975
38 | C[C@@H]1CC2C3CCC4=CC(=O)C=C[C@]4(C)[C@@]3(F)[C@@H](O)C[C@]2(C)[C@@]1(O)C(=O)CO (stereo partly specified) | 0.558
39 | NCC1CCC(N)C(OC2C(N)CC(N)C(OC3OC(CO)C(O)C(N)C3O)C2O)O1 (stereo unspecified) | 0.858
40 | O=C1OC(c2ccc(O)cc2)(c2ccc(O)cc2)c2ccccc21 | 0.933
41 | CC12CCC3c4ccc(OCc5ccccc5)cc4CCC3C1C[C@@H](O)[C@@H]2O (stereo partly specified) | 1.38
42 | CCCCN1CCCCC1C(=O)Nc1c(C)cccc1C (stereo unspecified) | 0.919
43 | N.N.O=C(O)C1(C(=O)O)CCC1.[Pt] | 1.02
44 | COc1ccc(C2C(=O)c3ccccc3C2=O)cc1 | 0.844
45 | COC1=C2C[C@@H](C)C[C@H](OC)[C@H](O)[C@@H](C)/C=C(\C)[C@@H](OC(N)=O)[C@H](OC)/C=C\C=C(/C)C(=O)NC(=CC1=O)C2=O | 1.26
46 | O=c1ccn([C@@H]2O[C@H](COP(=O)(O)OP(=O)(O)OP(=O)(O)O)[C@@H](O)[C@H]2O)c(=O)[nH]1 | 0.932
